Percent effect of library compounds

The chains behind the UniProt entries cited, without tags or fusion partners.
UniProt P9WFT3, whole entry: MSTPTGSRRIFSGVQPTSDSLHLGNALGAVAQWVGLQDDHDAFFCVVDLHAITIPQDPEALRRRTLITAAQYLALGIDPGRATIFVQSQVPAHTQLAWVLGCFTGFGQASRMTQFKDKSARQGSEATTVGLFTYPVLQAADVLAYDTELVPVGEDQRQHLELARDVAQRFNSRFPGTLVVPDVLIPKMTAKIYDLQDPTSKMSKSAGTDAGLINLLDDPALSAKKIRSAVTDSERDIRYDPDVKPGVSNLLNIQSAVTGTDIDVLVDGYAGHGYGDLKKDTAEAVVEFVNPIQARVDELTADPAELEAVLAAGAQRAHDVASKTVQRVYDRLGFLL

Results are given as percent effect. The controls that fix the scale are not given in the record; negative values are as filed. Compounds were drawn at random from those tested, without regard to their results.

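Tryptophan-tRNA ligase, Mycobacterium tuberculosis (UniProt P9WFT3). Enzyme assay of tryptophanyl-tRNA synthetase; the read-out is not stated. Tested at 10 µM. Higher most likely means stronger inhibition; the record gives no direction and few retests gave an IC50. Size under these conditions: about 65,000 compounds, about 64 of them at 50% or above in at least one test.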

Compound	effect
CC(=O)N(Cc1ncc(C(C)C)o1)C1CCN(CCn2cncn2)C1 (stereo not given)	2.322%
COc1cc(C(C)=O)ccc1SCC(=O)Nc1cccc(C)n1	3.096%
Cc1nc2cc(OCc3nc(C(=O)NC(CO)CO)co3)ccc2s1	1.232%
COc1cccc(-n2cc(CN(C)C(=O)c3cc[nH]n3)cn2)c1	-36.22%
CCc1nnc(CN2CCN(c3cccc(OC)c3)C(=O)C2)o1	-0.4402%
CN1CCC2(CC1)C(=O)N(c1cccnc1)c1ccc(F)cc12	-1.763%
Clc1snnc1CN1CCN(c2nccs2)CC1	-2.731%
CN1CCOC(CNCCOc2ccc(C#N)cc2)C1 (stereo not given)	-5.776%
CSc1cc2c(cc1NC(=O)NCC(C)(C)C(N)=O)OCCO2	-3.189%
COc1ccc(OCC(C)NS(C)(=O)=O)cc1 (stereo not given)	-4.631%
Cn1ncc2c1CCCC2NCc1cnc(-c2ccccc2)nc1 (stereo not given)	0.07825%
CC(=O)c1c(C)nn(CC(=O)Nc2ccc(F)cc2)c1C	22.57%
Cc1ncc(CN(C)C(=O)Nc2cccc(N3CCNC3=O)c2)s1	-3.406%
CCS(=O)(=O)N1CCN(C(C)c2ncc(-c3ccccc3)o2)CC1 (stereo not given)	2.448%
CN(Cc1cc2n(n1)CCNC2)Cc1n[nH]c2c1CCCCC2	-1.708%
CCC(C)Oc1ccc(CNCCNS(C)(=O)=O)cc1Cl (stereo not given)	1.211%
COc1ccc(-c2noc([C@@H]3C[C@@H](O)CN3C3CCN(C)CC3)n2)cc1	-1.593%
O=C(CC1Cn2ncnc2NC1=O)Nc1ccc(F)c(F)c1 (stereo not given)	1.815%
CCN(Cc1noc(C2CC2)n1)C(=O)c1onc2ccccc12	5.433%
c1ccc(CC2(CNCc3ncc[nH]3)CCC2)cc1	-3.511%
Cn1ccc2c(C(=O)N3CCC4(CCOC4)C3)cccc21 (stereo not given)	-1.273%
COCc1c(C(=O)N2CCCC(C(=O)c3ccccc3)C2)noc1C (stereo not given)	-4.288%
CCc1cccc(-n2nnc(C(=O)O)c2-c2ccncc2)c1	-0.7498%
O=c1cnc2ccccc2n1CCCn1cccn1	-0.7417%
Cc1nnc2n1CCN(C(C(=O)NC1CC1)c1ccc(F)cc1)C2 (stereo not given)	-6.016%
COc1ccc(CN2C[C@@H]3CN(Cc4ccncc4)C[C@@H]3C2=O)cc1	7.518%
OCCN1CCOC2(CCCN(c3ncccn3)C2)C1 (stereo not given)	-3.66%
Cc1ccc(C(=O)N2CCCC(c3nncn3C)C2)c(C)c1 (stereo not given)	-3.511%
C[C@@H]1CN(Cc2cccnc2)C[C@]12CCN(CCN1CCCC1)C2=O	-4.478%
COc1ccccc1Cc1nnc(SCCS(C)(=O)=O)o1	3.069%
CCc1ncc2c(n1)CN(Cc1nnc(C)o1)CC2	7.627%
COc1ccc(N2Cc3nc(N)ncc3C2=O)cc1Cl	1.085%
Cc1c(CN2CCCC(C(=O)CCc3ccccc3)C2)cc(C#N)n1C (stereo not given)	6.186%
CC(C(=O)N1CCCC1)N1CCC(c2nccn2CC2CCC2)CC1 (stereo not given)	2.423%
C=C(C)CN(CC)C(=O)CN(C)C1CCc2ccccc21 (stereo not given)	-2.197%
Cc1cnc(N2CCC3(CC2)CC3CNC(=O)N(C)C)nc1 (stereo not given)	-1.803%
CC(O)CCN(C)S(=O)(=O)Cc1ccc(Cl)c(Cl)c1 (stereo not given)	4.757%
Cc1nc(NC2CCS(=O)(=O)CC2)cc(C2CCCNC2)n1 (stereo not given)	-1.499%
O=C(CC1COCCN1S(=O)(=O)c1ccccc1)NCc1ccccn1 (stereo not given)	8.667%
O=C(NCc1nn(-c2ccccc2)c2c1CCC2)C1CC1	4.888%
O=C(Nc1cccc2c1CCCC2)c1cccc(CN2CC[C@H](O)C2)c1	-1.881%
Cc1cncc(NCc2ccccc2N2CCOCC2)c1	-4.489%
CCN(CC)CCCN1CCN(c2nc(C)cnc2C)CC1	-1.008%
Cc1cc(C)c2c(N3CCCN(C(=O)C4CCC4)CC3)ncnc2n1	0.4405%
Cc1c[nH]nc1C1CCN(C(=O)CC2CCCC2)C1 (stereo not given)	-5.23%
Cc1cccc(-c2c[nH]c(C3CCCN3C(=O)Cn3cc(C)cn3)n2)c1 (stereo not given)	4.563%
Cc1cc(Br)ccc1CNC(=O)C1(O)CCSCC1	12.07%
CO[C@H]1[C@@H]2CC[C@H]1CN(c1nc(C)nc3sccc13)C2	-1.816%
Cc1csc(C(C)(C)NCCNS(C)(=O)=O)n1	-3.179%
Cc1cnn(CCC(=O)N2CCN(c3ccc(C#N)cn3)CC2)c1	-0.2366%
CCc1nc(CN2CCN(C(=O)N3CCCCC3)CC2)cs1	1.557%
CC(Cn1cccn1)NCc1nc(-c2ccc3c(c2)OCO3)no1 (stereo not given)	10.34%
Cn1cc(CN2CCOCC3(C2)CN(c2ccccc2)C(=O)CO3)cn1 (stereo not given)	-0.8629%
CC1CCCN(C(=O)CNC(=O)c2ccoc2)C1 (stereo not given)	22.54%
c1cnc2nc(N3CCCC3c3nnc4n3CCCCC4)ccc2n1 (stereo not given)	-0.8223%
O=C(NCC1CC1)C1CCC2(CCN(C(=O)c3cccs3)CC2)O1 (stereo not given)	-2.156%
CCN(CC1CN(Cc2cccc(C#N)c2)CCO1)c1cccnn1 (stereo not given)	1.086%
CC(=O)NCC(=O)N1CCc2nc(-c3ccccc3)nc(C)c2CC1	1.26%
CCC(C)NC(=O)Cn1c(Nc2cc(C)cc(C)c2)nc(C)cc1=O (stereo not given)	1.455%
CS(=O)(=O)NCC1CCCCN1C(=O)c1csc(-c2ccsc2)n1 (stereo not given)	-2.082%
COc1cc2nc3n(c(=O)c2cc1OC)CCN(C(C)=O)CC3	2.759%
Cc1ccc(CN2CCn3c(CN4CCN(C)CC4)cnc3C2C)s1 (stereo not given)	22.05%
Cc1ccc(-c2csc3c(=O)[nH]c(N4CCCC(C(=O)O)C4)nc23)cc1 (stereo not given)	2.964%
Fc1ccc(CNCCn2cccn2)cc1F	-0.2337%
CC(C)(C)Cc1nnc(NCc2ccsc2)o1	16.1%
CCCn1[nH]cc/c1=N\C(=O)CN1CCOC(Cn2cc(C)cn2)C1 (stereo not given)	-0.2534%
O=C(c1ccoc1)N1CCCC2(CCC(=O)N2Cc2cccnc2)C1 (stereo not given)	-0.07047%
Cc1nn(C)c(C)c1C1CCCN1C(=O)CCCn1cccn1 (stereo not given)	0.8772%
CC1=N[C@@]2(CC[C@@H]3CN(Cc4ccccc4F)C[C@@H]32)C(=O)N1CC1CC1	0%
CCOc1nnc(CNC2CCCN(c3ccc(C)nn3)C2)s1 (stereo not given)	-2.269%
Cc1cc(C)n(C2CCCN(C(=O)Cc3cn4ccsc4n3)C2)n1 (stereo not given)	-3.743%
O=C(NCCNc1ncccn1)C1CC(=O)N(Cc2ccccn2)C1 (stereo not given)	7.91%
COc1cccc(-n2cc(-c3ccnc(N[C@@H](CO)C(C)C)n3)cn2)c1	-38.2%
Cc1cnn(CC(C)NCc2csc(-c3ncccn3)n2)c1 (stereo not given)	-3.323%
CCCS(=O)(=O)N1CC[C@H]2O[C@H](c3nnc(C)o3)CC[C@H]21	-5.844%
CN1CCC(c2nnc3ccc(C(=O)N4CCCCC4)cn23)C1 (stereo not given)	-5.455%
CCCN1CCCn2c(nc(CNC(=O)c3nccn3C)cc2=O)C1	-1.904%
CCOc1ccccc1CC(=O)N1C[C@@H](C(=O)O)[C@H](c2ccncc2)C1	-3.671%
CC(C)(C)n1cc(C2=CCN(CCNC(N)=O)CC2)cn1	2.493%

For reference, 6 entries once more:

Compound,effect
CC(O)CCN(C)S(=O)(=O)Cc1ccc(Cl)c(Cl)c1 (stereo not given),4.757%
Cn1cc(CN2CCOCC3(C2)CN(c2ccccc2)C(=O)CO3)cn1 (stereo not given),-0.8629%
CCS(=O)(=O)N1CCN(C(C)c2ncc(-c3ccccc3)o2)CC1 (stereo not given),2.448%
CCc1cccc(-n2nnc(C(=O)O)c2-c2ccncc2)c1,-0.7498%
c1cnc2nc(N3CCCC3c3nnc4n3CCCCC4)ccc2n1 (stereo not given),-0.8223%
CC(C(=O)N1CCCC1)N1CCC(c2nccn2CC2CCC2)CC1 (stereo not given),2.423%

Data taken from ChEMBL document CHEMBL3988442, “University of Dundee, Small-Polar-MMV Screening Library” (2021).